Measurements reported in PubChem BioAssay AID1224826 (NIAID, 2016)
Test: 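Knock-downs that raise or lower Tnf reporter signal after endotoxin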 (primary screen). Cell system: RAW264.7 G9 macrophages from mouse bearing reporters for p65 (GFP) and the Tnf promoter (mCherry). Knock-down reagent: siRNA pool against mouse genes, 100 nM. Time to read-out: 16 h of LPS stimulation, after 2 days of siRNA transfection. Treatment: bacterial lipopolysaccharide (Salmonella minnesota R595), 10 ng/ml. Detection: 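Imaged Tnf reporter mCherry in nuclei, minus background, normalised per plate to the median and expressed as robust z-scores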. Direction: Tnf reporter robust z-score: higher = stronger Tnf promoter reporter signal after LPS. Active means: 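Called active when robust z-score is at most -1.3, matching the median of the Tlr4 knock-down control, or over 3; control wells and wells with under 50 cells never active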. Calls: active = Tnf reporter clearly lowered or raised; inactive = no clear change in Tnf reporter.
The whole screen tested about 17,000 reagents; shown is a part drawn at random. Over the whole deposit, about 1,110 (6.6%) were called active. 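Active means lowered or raised reporter signal; replicate intensities are raw and not normalised per plate.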 Not all columns of the deposit are shown.

Target gene | Tnf reporter robust z-score | fewer than 50 cells in well | activity call
Lsm12 | 0.99 | enough cells in well | inactive
Prl2b1 | 0.49 | enough cells in well | inactive
Lck | -0.41 | enough cells in well | inactive
Opn5 | 0.32 | enough cells in well | inactive
Ywhaz | -0.69 | enough cells in well | inactive
Fam32a | -0.74 | enough cells in well | inactive
Prag1 | -0.28 | enough cells in well | inactive
Rnf146 | -1.79 | enough cells in well | active
Tmlhe | – | fewer than 50 cells per well; well left out of calls | inactive
Pdcl2 | -0.98 | enough cells in well | inactive
C530043A13Rik | 1.39 | enough cells in well | inactive
Zdhhc16 | -1.35 | enough cells in well | active
1700129L04Rik (retired record) | -0.51 | enough cells in well | inactive
Spata6l | -0.25 | enough cells in well | inactive
Oprd1 | -1.82 | enough cells in well | active
C130058G22RIK | 0.71 | enough cells in well | inactive
Gtf2i | -0.41 | enough cells in well | inactive
Nadk | 0.91 | enough cells in well | inactive
Kcnj5 | -0.22 | enough cells in well | inactive
Or9i16 | 0.59 | enough cells in well | inactive
Edn1 | -0.17 | enough cells in well | inactive
H2-Q5 | -0.01 | enough cells in well | inactive
Notch1 | 0.03 | enough cells in well | inactive
Ghitm | 1.7 | enough cells in well | inactive
BC004004 | 0.48 | enough cells in well | inactive
Mtrf1 | 0.58 | enough cells in well | inactive

A few values from the list.
Value of Tmlhe under “activity call”: inactive
Under “activity call”, Rnf146 is entered as active
For “fewer than 50 cells in well”, Prl2b1 shows enough cells in well
Opn5, fewer than 50 cells in well → enough cells in well
Value of 1700129L04Rik (retired record) under “Tnf reporter robust z-score”: -0.51
Result of Zdhhc16 under “activity call”: active

Further records follow.
Target gene | Tnf reporter robust z-score | fewer than 50 cells in well | activity call
Elavl1 | -1.34 | enough cells in well | active
Or6c76b | – | fewer than 50 cells per well; well left out of calls | inactive
Slc35b4 | 0.07 | enough cells in well | inactive
V1rg10 | 2.69 | enough cells in well | inactive
Ntng1 | 0.51 | enough cells in well | inactive
Clns1a | 0.99 | enough cells in well | inactive
Vmn1r27 | 4.05 | enough cells in well | active
Trim23 | -0.62 | enough cells in well | inactive
Bcl2a1c | – | fewer than 50 cells per well; well left out of calls | inactive
Il13 | -0.57 | enough cells in well | inactive
Ramp3 | 0.16 | enough cells in well | inactive
Rgs2 | -0.82 | enough cells in well | inactive
Wee2 | -0.16 | enough cells in well | inactive
Fam76b | 3.1 | enough cells in well | active
Foxm1 | -0.11 | enough cells in well | inactive
4921522P10Rik | – | fewer than 50 cells per well; well left out of calls | inactive
Cgas | -0.42 | enough cells in well | inactive
Tiam2 | 0.05 | enough cells in well | inactive
Defb20 | 1.13 | enough cells in well | inactive
Ankrd55 | 1.75 | enough cells in well | inactive
Cst9 | 0.15 | enough cells in well | inactive
Klf9 | -0.34 | enough cells in well | inactive
Arpc4 | -0.43 | enough cells in well | inactive
Ppp2r5a | -0.23 | enough cells in well | inactive
Vmn1r54 | – | fewer than 50 cells per well; well left out of calls | inactive
Shmt2 | 0.37 | enough cells in well | inactive
Zfp532 | 0.18 | enough cells in well | inactive
Czib | 3.31 | enough cells in well | active
Phlpp1 | 0.31 | enough cells in well | inactive
Serinc5 | 1.23 | enough cells in well | inactive
Pzp2 | 0.14 | enough cells in well | inactive
Lypd6b | – | fewer than 50 cells per well; well left out of calls | inactive
Ublcp1 | 0.81 | enough cells in well | inactive
Prokr1 | -0.61 | enough cells in well | inactive
Gpr65 | -0.2 | enough cells in well | inactive
Klra12 | -0.99 | enough cells in well | inactive
Or1e1c | -0.34 | enough cells in well | inactive
Maco1 | -0.54 | enough cells in well | inactive
Dcaf17 | -0.45 | enough cells in well | inactive
Trim61 | 3.34 | enough cells in well | active
Snx15 | – | fewer than 50 cells per well; well left out of calls | inactive
Clrn3 | -0.73 | enough cells in well | inactive
Ankar | – | fewer than 50 cells per well; well left out of calls | inactive
Crisp1 | -1.42 | enough cells in well | active
Emilin2 | 2.69 | enough cells in well | inactive
Hibch | 0.14 | enough cells in well | inactive
Rgs17 | -0.24 | enough cells in well | inactive
Hsd3b4 | -0.76 | enough cells in well | inactive
Nkx2-5 | 0.08 | enough cells in well | inactive
